The record followed here is publication PMC5433843.

Amino acid sequences for entries named in this document (tags omitted).
UniProt P12982: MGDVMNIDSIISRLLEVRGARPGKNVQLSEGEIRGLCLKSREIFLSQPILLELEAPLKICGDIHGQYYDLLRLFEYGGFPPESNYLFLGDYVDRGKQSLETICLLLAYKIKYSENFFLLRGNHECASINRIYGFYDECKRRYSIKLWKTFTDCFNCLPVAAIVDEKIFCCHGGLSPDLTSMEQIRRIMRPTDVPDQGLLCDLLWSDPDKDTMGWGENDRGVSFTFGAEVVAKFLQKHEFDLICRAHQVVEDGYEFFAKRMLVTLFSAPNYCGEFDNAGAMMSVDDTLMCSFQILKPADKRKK

These are yes or no findings as the source states them, for the method shown. Where a sequence is shown, tags or fusion partners need not be part of it.

The assay deals with MBP-PP1-87B (Drosophila) (UniProt P12982). Kind of assay: pull-down; purified 6xHis-N-Mps1 fragments incubated with MBP or MBP-PP1-87B bound to amylose magnetic beads; column buffer 250 mM NaCl, 20 mM Tris-HCl pH 7.4, 1 mM EDTA, 1 mM DTT; 60 min, room temperature; western blot; both purified. For orientation: A western blot detects proteins with antibodies after separation by electrophoresis.

B1: 6xHis-N-Mps1^K231A/F234A (domain or fragment, UniProt Q9VEH1 104-330)
chain: PSQELTNSNSNITTRRTPSAAPLKQSDSNLSFLGRFNDMGINCSSQGSPVANSEKQVAKKTAPTLQAAPSATERRPLQETETPLRNELPSTSKTKPDADFITPQVRTIGSTLAGKSRSAVSNDFRAQAVLAQTPMTVSRAAPVASDSISFSLCDTITESPDIPEPPKKAEPPKSQHPSKKSLDHVFRESDKDNVPDKVDNVEPKELVSIPAVAVPPEQPSHKTSNIL
As for B1, the binding entry is on record as “no binding”.
